PubChem BioAssay AID686938, Drosophila RNAi Screening Center – 2013
Test: 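Looking for CRAC channel components and the factors controlling them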 (primary screen). Cells: Drosophila S2R+ cells. Reagent: long dsRNA against Drosophila genes, about 0.25 µg dsRNA per well, roughly 10,000 cells. Timing: 5 days of knock-down before the calcium assay. Challenge: thapsigargin (SERCA pump blocker) to empty calcium stores; entry signal taken 4 min after adding it. Read-out: 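Per-well fluo-4 fluorescence in two replicates, unnormalised, measured in resting cells and 4 min after store depletion by the SERCA blocker thapsigargin; ratio of the two present in few wells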. Direction: calcium entry signal: higher = stronger calcium signal after store depletion; entry to resting ratio: higher = more calcium entry relative to resting level; resting calcium signal: higher = higher resting calcium signal. Active means: 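Called when the plate z-score of the entry-to-rest ratio, mean of duplicates, falls below −3; wells with low overall dye signal (Fmax z below −2) or more than five off-targets excluded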. Meaning of the calls: active = strongly reduced calcium entry; inactive = no strong reduction.
The deposit covers about 23,000 reagents; shown is an unselected part of those that have a named target and a result. Of all reagents, 75 (0.33%) were called active. 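Raw plate signals without normalisation; calls rest on plate z-scores that were not deposited; ratio present for only 364 wells.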 A plus sign joins genes that one reagent is predicted to hit. Not given: the dose of the treatment.

| gene knocked down | DRSC id | calcium entry signal, replicate 1 (fluorescence units) | calcium entry signal, replicate 2 (fluorescence units) | entry to resting ratio | resting calcium signal, replicate 1 (fluorescence units) | resting calcium signal, replicate 2 (fluorescence units) | activity call |
| --- | --- | --- | --- | --- | --- | --- | --- |
| Caf1-105 (Chromatin assembly factor 1, p105 subunit) | DRSC06209 | 3.69e7 | 4.77e7 | – | 1.81e7 | 2.06e7 | inactive |
| Pgd (Phosphogluconate dehydrogenase) | DRSC18697 | 2.75e7 | 3.60e7 | – | 1.38e7 | 1.76e7 | inactive |
| Sgt1 (suppressor-of-G2-allele-of-skp1) | DRSC16519 | 4.15e7 | 3.56e7 | – | 1.99e7 | 1.78e7 | inactive |
| Kots (Kotsubu) | DRSC16581 | 2.94e7 | 3.13e7 | – | 1.33e7 | 1.45e7 | inactive |
| CG3199 | DRSC15467 | 2.13e7 | 3.61e7 | – | 1.06e7 | 5.49e7 | inactive |
| Ste:CG33238 + Ste:CG33241 + Ste:CG33236 + 11 more | DRSC19004 | 1.95e7 | 3.19e7 | – | 9.99e6 | 1.39e7 | inactive |
| Ste:CG33238 + Ste:CG33241 + Ste:CG33236 + 11 more | DRSC21260 | 4.02e7 | 5.05e7 | – | 2.14e7 | 2.18e7 | inactive |
| Idh3g | DRSC15699 | 3.85e7 | 5.12e7 | – | 1.66e7 | 2.22e7 | inactive |
| Tg (Transglutaminase) | DRSC03047 | 2.59e7 | 3.72e7 | – | 1.19e7 | 1.63e7 | inactive |
| Uros2 (Uroporphyrinogen III synthase 2) | DRSC16505 | 3.02e7 | 5.57e7 | – | 1.49e7 | 6.30e7 | inactive |
| osk (oskar) | DRSC17023 | 3.31e7 | 3.13e7 | – | 1.40e7 | 1.50e7 | inactive |
| CG1603 | DRSC06602 | 4.00e7 | – | – | 2.10e7 | – | inactive |
| mTerf3 (mitochondrial transcription termination factor 3) | DRSC11759 | 3.93e7 | 4.46e7 | – | 1.90e7 | 3.15e7 | inactive |
| CG32281 | DRSC08236 | 4.01e7 | 2.51e7 | – | 2.83e7 | 1.10e7 | inactive |
| Syngr (Synaptogyrin) | DRSC06003 | 2.60e7 | 2.57e7 | – | 1.49e7 | 1.48e7 | inactive |
| Rad60 | DRSC15580 | 3.54e7 | 6.06e7 | – | 2.18e7 | 2.30e7 | inactive |
| CG8541 | DRSC10989 | 2.88e7 | 4.49e7 | – | 1.46e7 | 1.93e7 | inactive |
| CG32195 | DRSC09533 | 4.44e7 | 4.54e7 | – | 2.01e7 | 2.40e7 | inactive |
| Yp1 (Yolk protein 1) | DRSC18731 | 3.93e7 | 4.12e7 | – | 2.03e7 | 2.27e7 | inactive |
| tous (testes of unusual size) | DRSC04464 | 3.65e7 | – | – | 1.83e7 | – | inactive |
| CG4022 | DRSC10395 | 2.37e7 | 3.24e7 | – | 1.22e7 | 1.44e7 | inactive |
| ca (claret) | DRSC15305 | 3.02e7 | 4.06e7 | – | 1.36e7 | 1.76e7 | inactive |
| ca (claret) | DRSC15306 | 4.36e7 | 6.49e7 | – | 2.19e7 | 2.50e7 | inactive |
| ca (claret) | DRSC16314 | 4.33e7 | 5.97e7 | – | 2.16e7 | 2.56e7 | inactive |
| CtsK2 (Cathepsin K2) | DRSC06897 | 3.19e7 | 2.63e7 | – | 1.43e7 | 1.38e7 | inactive |
| CG3285 | DRSC00589 | 4.44e7 | – | – | 2.21e7 | – | inactive |
| gdrd (goddard) | DRSC10020 | 3.86e7 | 4.80e7 | – | 1.75e7 | 1.90e7 | inactive |
| CG42238 | DRSC03180 | 3.07e7 | – | – | 1.44e7 | – | inactive |
| E(spl)mdelta-HLH (Enhancer of split mdelta, helix-loop-helix) | DRSC16698 | 3.86e7 | 5.76e7 | – | 2.00e7 | 2.15e7 | inactive |
| wam (wampa) | DRSC15171 | 3.43e7 | 4.94e7 | – | 1.77e7 | 2.15e7 | inactive |
| CG12209 | DRSC06119 | 3.24e7 | 4.09e7 | – | 1.60e7 | 1.75e7 | inactive |
| Ir60b (Ionotropic receptor 60b) | DRSC04217 | 3.60e7 | 4.85e7 | – | 1.94e7 | 2.25e7 | inactive |
| Ser (Serrate) | DRSC16856 | 4.11e7 | 5.94e7 | – | 2.03e7 | 2.39e7 | inactive |
| Idi (Isopentenyl-diphosphate delta isomerase) | DRSC15918 | 4.62e7 | 3.85e7 | – | 2.07e7 | 1.75e7 | inactive |
| Cpr12A (Cuticular protein 12A) | DRSC19722 | 3.93e7 | 3.91e7 | – | 1.77e7 | 1.72e7 | inactive |
| Pgm2a (Phosphoglucomutase 2a) | DRSC07068 | 4.81e7 | 4.46e7 | – | 2.02e7 | 1.92e7 | inactive |
| CG11110 | DRSC06037 | 1.84e7 | 2.53e7 | – | 9.70e6 | 1.24e7 | inactive |
| CG15312 | DRSC18000 | 4.08e7 | 4.25e7 | – | 1.82e7 | 1.95e7 | inactive |
| lectin-33A | DRSC02529 | 2.54e7 | 3.94e7 | – | 1.32e7 | 1.84e7 | inactive |
| lectin-33A | DRSC22116 | 2.19e7 | 4.93e7 | – | 1.13e7 | 2.20e7 | inactive |
| Dh44-R2 (Diuretic hormone 44 receptor 2) | DRSC06141 | 3.19e7 | 3.48e7 | – | 1.64e7 | 1.67e7 | inactive |
| Dh44-R2 (Diuretic hormone 44 receptor 2) | DRSC06281 | 3.69e7 | 3.58e7 | – | 1.83e7 | 1.69e7 | inactive |
| CG1773 | DRSC06688 | 3.00e7 | 3.38e7 | – | 1.30e7 | 1.64e7 | inactive |
| CG31769 | DRSC01361 | 1.88e7 | 2.74e7 | – | 1.05e7 | 1.20e7 | inactive |
| hfw (halfway) | DRSC18506 | 3.85e7 | 4.49e7 | 2.1 | 1.82e7 | 1.80e7 | inactive |
| CG10508 | DRSC11612 | 4.17e7 | 5.12e7 | – | 1.74e7 | 3.37e7 | inactive |
| CG10508 | DRSC11613 | 3.38e7 | 4.71e7 | – | 1.59e7 | 1.97e7 | inactive |
| CG32121 | DRSC09265 | 4.30e7 | 4.39e7 | – | 2.10e7 | 2.22e7 | inactive |
| CG13250 | DRSC11698 | 3.21e7 | 5.03e7 | – | 1.62e7 | 2.29e7 | inactive |
| CG5521 | DRSC15828 | 3.07e7 | 5.02e7 | – | 1.51e7 | 2.05e7 | inactive |
| ras (raspberry) | DRSC18825 | 3.68e7 | 2.83e7 | – | 1.61e7 | 1.42e7 | inactive |
| Mlc2 (Myosin light chain 2) | DRSC16741 | 5.26e7 | 5.91e7 | – | 2.33e7 | 2.66e7 | inactive |
| ProtA (Protamine A) | DRSC03372 | 3.36e7 | 2.31e7 | – | 1.53e7 | 1.09e7 | inactive |
| CG8476 | DRSC16426 | 2.37e7 | 4.78e7 | – | 1.26e7 | 2.43e7 | inactive |
| Mrm2 (Mitochondrial rRNA methyltransferase 2) | DRSC14310 | 3.99e7 | 4.93e7 | – | 6.22e7 | 2.11e7 | inactive |
| CG2004 | DRSC18200 | 3.72e7 | 3.86e7 | – | 1.86e7 | 1.85e7 | inactive |
| Ccs (Copper chaperone for superoxide dismutase) | DRSC06692 | 2.80e7 | 3.75e7 | – | 1.43e7 | 1.72e7 | inactive |
| CG2926 | DRSC12321 | 3.42e7 | 3.31e7 | – | 1.58e7 | 1.53e7 | inactive |
